## Drug screen on melanoma cell lines: apoptosis marker

Values as published with doi:10.1371/journal.pone.0140310, rounded.

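Human melanoma cell lines in 1,536-well plates were treated with two drugs together for 72 h, then fixed, stained and imaged. Values are the share of nuclei positive for cleaved PARP as a percentage of the same share in the DMSO control: 100 is the control level, higher means more apoptosis. Every drug was used at one fixed concentration, the higher of two screened. No replicate spread is given; individual values may be noisy. Basal and induced levels differ widely between cell lines.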
Only some of the drugs and lines screened are listed, without regard to their results.

Drugs:
tanespimycin (0.01 µM): C=CCNC1=C2C[C@@H](C)C[C@H](OC)[C@H](O)[C@@H](C)/C=C(\C)[C@H](OC(N)=O)[C@@H](OC)/C=C\C=C(/C)C(=O)NC(=CC1=O)C2=O
RKI-983 (2 µM): C[C@@H](N)c1ccc(C(=O)Nc2ccnc3[nH]ccc23)cc1
OSI-906 (2 µM): C[C@]1(O)C[C@@H](c2nc(-c3ccc4ccc(-c5ccccc5)nc4c3)c3c(N)nccn32)C1
XAV939 (10 µM): Oc1nc(-c2ccc(C(F)(F)F)cc2)nc2c1CSCC2
MK-2206 (2 µM): NC1(c2ccc(-c3nc4ccn5c(=O)[nH]nc5c4cc3-c3ccccc3)cc2)CCC1
JZL184 (5 µM): O=C(Oc1ccc([N+](=O)[O-])cc1)N1CCC(C(O)(c2ccc3c(c2)OCO3)c2ccc3c(c2)OCO3)CC1
GW2580 (5 µM): COc1ccc(COc2ccc(Cc3cnc(N)nc3N)cc2OC)cc1
nilutamide (5 µM): CC1(C)NC(=O)N(c2ccc([N+](=O)[O-])c(C(F)(F)F)c2)C1=O

{"drugs": "RKI-983 + tanespimycin", "A101D": 105, "MeWo": 222}
{"drugs": "XAV939 + GW2580", "A101D": 67.9, "MeWo": 60.2}
{"drugs": "MK-2206 + RKI-983", "A101D": 97.0, "MeWo": 230}
{"drugs": "JZL184 + RKI-983", "A101D": 54.5, "MeWo": 160}
{"drugs": "OSI-906 + JZL184", "A101D": 79.2, "MeWo": 119}
{"drugs": "nilutamide + JZL184", "A101D": 49.3, "MeWo": 44.4}
{"drugs": "tanespimycin + OSI-906", "A101D": 201, "MeWo": 241}
{"drugs": "JZL184 + tanespimycin", "A101D": 160, "MeWo": 209}
{"drugs": "nilutamide + OSI-906", "A101D": 46.9, "MeWo": 73.5}
{"drugs": "MK-2206 + OSI-906", "A101D": 132, "MeWo": 78.3}
{"drugs": "GW2580 + JZL184", "A101D": 101, "MeWo": 137}
{"drugs": "tanespimycin + nilutamide", "A101D": 256, "MeWo": 259}
{"drugs": "XAV939 + tanespimycin", "A101D": 60.3, "MeWo": 87.2}
{"drugs": "MK-2206 + nilutamide", "A101D": 86.7, "MeWo": 72.1}
{"drugs": "OSI-906 + RKI-983", "A101D": 95.2, "MeWo": 221}
{"drugs": "OSI-906 + XAV939", "A101D": 155, "MeWo": 72.5}
{"drugs": "XAV939 + RKI-983", "A101D": 132, "MeWo": 285}
{"drugs": "tanespimycin + GW2580", "A101D": 235, "MeWo": 167}
{"drugs": "MK-2206 + XAV939", "A101D": 339, "MeWo": 61.5}
{"drugs": "GW2580 + RKI-983", "A101D": 164, "MeWo": 290}
{"drugs": "GW2580 + OSI-906", "A101D": 123, "MeWo": 53.0}
{"drugs": "GW2580 + MK-2206", "A101D": 138, "MeWo": 176}
{"drugs": "nilutamide + XAV939", "A101D": 84.1, "MeWo": 107}
{"drugs": "nilutamide + GW2580", "A101D": 39.2, "MeWo": 167}
{"drugs": "tanespimycin + MK-2206", "A101D": 277, "MeWo": 138}
{"drugs": "JZL184 + XAV939", "A101D": 113, "MeWo": 73.3}
{"drugs": "nilutamide + RKI-983", "A101D": 83.6, "MeWo": 274}

3 of the entries, repeated:

{"drugs": "OSI-906 + XAV939", "A101D": 155, "MeWo": 72.5}
{"drugs": "tanespimycin + GW2580", "A101D": 235, "MeWo": 167}
{"drugs": "JZL184 + XAV939", "A101D": 113, "MeWo": 73.3}